Test [1] deals with T1, MRG-1::3xHA (C. elegans (endogenous in L4 worms)) (UniProt A7DTF0).
T1 sequence: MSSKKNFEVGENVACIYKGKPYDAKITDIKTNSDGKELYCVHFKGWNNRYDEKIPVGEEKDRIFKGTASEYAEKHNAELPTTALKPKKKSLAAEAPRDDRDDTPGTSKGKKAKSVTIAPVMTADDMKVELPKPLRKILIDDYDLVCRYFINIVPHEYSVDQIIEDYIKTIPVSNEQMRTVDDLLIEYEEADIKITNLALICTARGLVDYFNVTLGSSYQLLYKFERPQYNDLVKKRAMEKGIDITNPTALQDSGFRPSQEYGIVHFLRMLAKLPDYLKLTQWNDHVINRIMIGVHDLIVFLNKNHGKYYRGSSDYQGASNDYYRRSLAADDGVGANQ
The test can be described thus: affinity purification with mass spectrometry; IP-MS in triplicate from lysates of L4-stage mrg-1::3xHA^CRISPR worms with HA antibodies (Roche), N2 lysates (no HA tag) as negative control; µMACS ProteinA beads; lysis buffer 20 mM HEPES pH 7.4, 150 mM NaCl, 2 mM MgCl2, 0.1% Tween 20; 4°; label-free quantification.

Chains of the proteins cited; added tags and fusions are not shown.
UniProt P90916: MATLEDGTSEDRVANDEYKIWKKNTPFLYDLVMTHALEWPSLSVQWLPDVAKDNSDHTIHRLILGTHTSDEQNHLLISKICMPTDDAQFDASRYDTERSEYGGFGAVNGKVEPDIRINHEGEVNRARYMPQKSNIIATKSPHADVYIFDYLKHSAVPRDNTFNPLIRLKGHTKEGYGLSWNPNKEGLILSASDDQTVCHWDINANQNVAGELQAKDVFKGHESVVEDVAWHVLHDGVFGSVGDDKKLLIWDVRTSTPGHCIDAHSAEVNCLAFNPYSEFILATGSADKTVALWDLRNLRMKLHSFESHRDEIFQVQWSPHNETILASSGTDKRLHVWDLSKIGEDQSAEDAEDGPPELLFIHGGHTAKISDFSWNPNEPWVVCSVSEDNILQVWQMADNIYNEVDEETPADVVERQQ
UniProt V6CLA2: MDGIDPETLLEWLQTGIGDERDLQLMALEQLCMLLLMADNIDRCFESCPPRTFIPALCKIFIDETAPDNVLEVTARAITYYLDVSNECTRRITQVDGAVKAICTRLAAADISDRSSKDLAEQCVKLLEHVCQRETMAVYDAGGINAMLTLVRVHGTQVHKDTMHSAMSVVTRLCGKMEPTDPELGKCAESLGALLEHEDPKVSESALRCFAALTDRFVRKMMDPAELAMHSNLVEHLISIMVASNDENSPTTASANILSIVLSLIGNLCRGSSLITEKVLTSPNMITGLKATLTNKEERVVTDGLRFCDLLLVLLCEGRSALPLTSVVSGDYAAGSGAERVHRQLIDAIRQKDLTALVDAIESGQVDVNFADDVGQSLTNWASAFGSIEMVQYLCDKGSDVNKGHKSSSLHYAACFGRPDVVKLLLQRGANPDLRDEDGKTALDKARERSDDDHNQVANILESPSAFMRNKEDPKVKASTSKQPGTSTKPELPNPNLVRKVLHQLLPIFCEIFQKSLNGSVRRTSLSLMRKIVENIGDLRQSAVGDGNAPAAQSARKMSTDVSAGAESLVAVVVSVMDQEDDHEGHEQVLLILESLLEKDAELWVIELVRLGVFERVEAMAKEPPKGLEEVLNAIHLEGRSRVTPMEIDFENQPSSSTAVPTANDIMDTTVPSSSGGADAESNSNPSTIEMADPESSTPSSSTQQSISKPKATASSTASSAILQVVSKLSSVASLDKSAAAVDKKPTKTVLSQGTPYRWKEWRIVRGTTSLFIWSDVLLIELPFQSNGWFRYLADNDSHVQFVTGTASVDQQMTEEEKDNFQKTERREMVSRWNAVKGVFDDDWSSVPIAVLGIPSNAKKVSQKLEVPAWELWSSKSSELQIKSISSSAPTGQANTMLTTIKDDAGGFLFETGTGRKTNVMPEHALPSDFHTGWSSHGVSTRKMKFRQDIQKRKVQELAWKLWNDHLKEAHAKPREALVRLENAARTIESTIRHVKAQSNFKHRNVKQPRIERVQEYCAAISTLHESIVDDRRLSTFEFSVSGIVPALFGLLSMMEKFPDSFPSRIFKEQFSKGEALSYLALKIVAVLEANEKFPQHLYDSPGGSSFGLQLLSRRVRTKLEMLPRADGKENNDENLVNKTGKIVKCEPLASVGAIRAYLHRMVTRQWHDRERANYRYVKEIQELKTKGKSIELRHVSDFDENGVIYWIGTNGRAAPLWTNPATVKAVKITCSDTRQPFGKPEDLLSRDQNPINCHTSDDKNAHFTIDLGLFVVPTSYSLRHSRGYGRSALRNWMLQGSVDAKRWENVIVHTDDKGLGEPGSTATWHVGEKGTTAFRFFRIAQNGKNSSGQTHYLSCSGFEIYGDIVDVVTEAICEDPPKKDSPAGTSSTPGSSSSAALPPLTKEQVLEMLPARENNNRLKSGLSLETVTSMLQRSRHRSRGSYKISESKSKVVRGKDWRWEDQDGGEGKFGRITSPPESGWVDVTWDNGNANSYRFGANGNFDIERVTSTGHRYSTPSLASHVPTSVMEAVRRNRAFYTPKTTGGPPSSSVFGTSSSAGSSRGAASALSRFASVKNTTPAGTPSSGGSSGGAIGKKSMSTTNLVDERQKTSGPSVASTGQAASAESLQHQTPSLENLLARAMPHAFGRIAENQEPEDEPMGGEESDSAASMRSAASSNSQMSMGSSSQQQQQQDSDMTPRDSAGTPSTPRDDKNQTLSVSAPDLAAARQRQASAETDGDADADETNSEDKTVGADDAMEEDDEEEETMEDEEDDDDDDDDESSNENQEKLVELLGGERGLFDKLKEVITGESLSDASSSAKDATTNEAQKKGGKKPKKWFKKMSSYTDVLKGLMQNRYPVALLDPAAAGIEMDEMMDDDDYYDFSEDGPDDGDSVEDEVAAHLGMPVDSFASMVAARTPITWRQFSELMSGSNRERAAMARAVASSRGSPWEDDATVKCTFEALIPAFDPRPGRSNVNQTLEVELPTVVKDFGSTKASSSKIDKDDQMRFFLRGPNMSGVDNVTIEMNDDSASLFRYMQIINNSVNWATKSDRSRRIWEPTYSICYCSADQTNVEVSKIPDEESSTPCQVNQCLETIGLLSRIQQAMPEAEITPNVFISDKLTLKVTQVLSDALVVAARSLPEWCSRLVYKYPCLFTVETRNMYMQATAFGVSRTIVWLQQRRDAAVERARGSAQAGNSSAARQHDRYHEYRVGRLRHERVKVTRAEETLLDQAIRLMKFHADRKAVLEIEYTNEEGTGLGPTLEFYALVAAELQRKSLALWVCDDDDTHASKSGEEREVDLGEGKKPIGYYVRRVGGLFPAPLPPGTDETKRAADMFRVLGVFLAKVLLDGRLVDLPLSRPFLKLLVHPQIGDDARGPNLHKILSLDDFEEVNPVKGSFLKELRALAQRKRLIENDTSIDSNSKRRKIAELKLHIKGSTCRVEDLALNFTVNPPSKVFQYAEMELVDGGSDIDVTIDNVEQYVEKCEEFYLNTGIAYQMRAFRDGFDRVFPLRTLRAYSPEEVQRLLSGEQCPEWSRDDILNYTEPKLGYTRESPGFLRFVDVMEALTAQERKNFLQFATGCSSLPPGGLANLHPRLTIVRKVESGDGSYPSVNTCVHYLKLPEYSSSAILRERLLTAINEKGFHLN
UniProt A5JYW9: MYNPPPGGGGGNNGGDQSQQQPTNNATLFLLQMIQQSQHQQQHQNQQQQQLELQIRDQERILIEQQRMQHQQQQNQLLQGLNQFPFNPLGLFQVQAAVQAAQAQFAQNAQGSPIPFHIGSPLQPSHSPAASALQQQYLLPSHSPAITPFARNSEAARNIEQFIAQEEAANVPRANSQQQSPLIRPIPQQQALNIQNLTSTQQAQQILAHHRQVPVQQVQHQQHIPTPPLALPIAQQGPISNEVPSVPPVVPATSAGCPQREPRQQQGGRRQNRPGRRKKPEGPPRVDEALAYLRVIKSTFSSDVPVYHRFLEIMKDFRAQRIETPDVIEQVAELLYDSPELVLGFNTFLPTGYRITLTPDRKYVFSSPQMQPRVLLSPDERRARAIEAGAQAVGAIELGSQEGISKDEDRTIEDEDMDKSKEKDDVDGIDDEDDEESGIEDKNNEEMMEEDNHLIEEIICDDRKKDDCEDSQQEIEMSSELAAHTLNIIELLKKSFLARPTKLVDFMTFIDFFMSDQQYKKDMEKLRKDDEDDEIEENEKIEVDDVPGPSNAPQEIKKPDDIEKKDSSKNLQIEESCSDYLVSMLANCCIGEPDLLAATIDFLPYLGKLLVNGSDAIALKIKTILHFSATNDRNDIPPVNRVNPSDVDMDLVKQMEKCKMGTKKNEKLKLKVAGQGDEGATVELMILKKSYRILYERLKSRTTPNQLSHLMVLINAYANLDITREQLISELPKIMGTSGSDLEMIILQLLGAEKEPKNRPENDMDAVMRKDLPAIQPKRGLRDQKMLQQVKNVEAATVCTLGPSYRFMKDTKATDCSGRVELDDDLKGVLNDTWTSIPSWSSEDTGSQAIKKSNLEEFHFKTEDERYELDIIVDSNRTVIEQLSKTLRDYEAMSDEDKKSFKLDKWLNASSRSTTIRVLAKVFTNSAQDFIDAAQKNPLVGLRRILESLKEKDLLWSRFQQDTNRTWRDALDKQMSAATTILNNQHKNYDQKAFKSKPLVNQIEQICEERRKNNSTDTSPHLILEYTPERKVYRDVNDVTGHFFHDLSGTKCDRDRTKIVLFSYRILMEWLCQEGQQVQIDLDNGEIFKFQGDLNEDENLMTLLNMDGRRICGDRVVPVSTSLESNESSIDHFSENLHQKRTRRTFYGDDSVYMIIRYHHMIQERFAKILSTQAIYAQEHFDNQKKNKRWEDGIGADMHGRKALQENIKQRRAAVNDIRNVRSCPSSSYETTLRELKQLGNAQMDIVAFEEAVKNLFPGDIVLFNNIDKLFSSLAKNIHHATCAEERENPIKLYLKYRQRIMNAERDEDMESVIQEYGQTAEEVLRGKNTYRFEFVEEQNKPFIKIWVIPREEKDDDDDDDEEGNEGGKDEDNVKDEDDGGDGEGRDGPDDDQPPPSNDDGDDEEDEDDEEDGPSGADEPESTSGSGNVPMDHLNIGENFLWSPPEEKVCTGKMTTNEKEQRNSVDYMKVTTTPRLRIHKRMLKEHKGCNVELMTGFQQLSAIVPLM
UniProt Q9U263: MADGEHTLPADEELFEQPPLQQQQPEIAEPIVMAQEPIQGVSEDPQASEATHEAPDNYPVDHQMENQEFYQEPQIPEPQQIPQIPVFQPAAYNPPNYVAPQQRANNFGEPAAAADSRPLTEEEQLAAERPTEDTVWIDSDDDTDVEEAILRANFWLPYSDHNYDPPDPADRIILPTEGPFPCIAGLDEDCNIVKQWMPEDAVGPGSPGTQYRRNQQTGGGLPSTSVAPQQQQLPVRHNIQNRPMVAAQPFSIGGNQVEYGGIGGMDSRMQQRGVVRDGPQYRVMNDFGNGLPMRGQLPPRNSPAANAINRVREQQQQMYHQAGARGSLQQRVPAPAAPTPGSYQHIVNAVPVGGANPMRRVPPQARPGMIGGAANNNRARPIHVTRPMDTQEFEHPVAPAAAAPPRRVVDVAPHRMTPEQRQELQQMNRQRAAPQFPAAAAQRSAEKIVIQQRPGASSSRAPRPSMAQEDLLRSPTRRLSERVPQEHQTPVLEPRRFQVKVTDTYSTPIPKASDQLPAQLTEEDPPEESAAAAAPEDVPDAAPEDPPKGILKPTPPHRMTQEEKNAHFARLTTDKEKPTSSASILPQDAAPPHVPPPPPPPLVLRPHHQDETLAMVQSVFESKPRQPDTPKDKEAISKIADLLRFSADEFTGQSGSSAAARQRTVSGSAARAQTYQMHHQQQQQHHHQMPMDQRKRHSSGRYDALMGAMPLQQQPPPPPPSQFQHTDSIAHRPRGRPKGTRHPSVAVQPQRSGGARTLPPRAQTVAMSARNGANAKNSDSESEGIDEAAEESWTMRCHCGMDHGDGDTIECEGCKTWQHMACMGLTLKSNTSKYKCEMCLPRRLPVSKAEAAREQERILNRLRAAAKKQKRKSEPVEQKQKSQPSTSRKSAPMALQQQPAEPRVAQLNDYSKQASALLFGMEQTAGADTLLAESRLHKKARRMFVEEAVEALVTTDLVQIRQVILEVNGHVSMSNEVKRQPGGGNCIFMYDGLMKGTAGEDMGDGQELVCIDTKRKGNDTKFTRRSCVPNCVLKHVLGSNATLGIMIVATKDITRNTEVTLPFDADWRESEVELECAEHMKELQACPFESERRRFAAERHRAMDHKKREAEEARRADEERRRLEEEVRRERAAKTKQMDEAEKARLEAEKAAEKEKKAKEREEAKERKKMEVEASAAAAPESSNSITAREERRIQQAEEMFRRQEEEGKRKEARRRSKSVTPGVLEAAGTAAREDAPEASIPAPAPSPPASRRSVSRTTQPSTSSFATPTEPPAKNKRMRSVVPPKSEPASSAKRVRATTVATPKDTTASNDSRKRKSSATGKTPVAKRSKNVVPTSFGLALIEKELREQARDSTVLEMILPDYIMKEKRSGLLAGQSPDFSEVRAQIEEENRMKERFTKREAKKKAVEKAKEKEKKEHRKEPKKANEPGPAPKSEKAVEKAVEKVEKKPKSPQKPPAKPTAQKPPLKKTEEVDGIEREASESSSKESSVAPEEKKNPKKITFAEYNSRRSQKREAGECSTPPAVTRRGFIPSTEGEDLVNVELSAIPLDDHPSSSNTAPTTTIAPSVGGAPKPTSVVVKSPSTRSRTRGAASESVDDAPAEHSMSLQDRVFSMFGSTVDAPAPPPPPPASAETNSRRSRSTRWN

Test [2] has as its target T2, MRG-1 (C. elegans (endogenous in L4 worms)) (UniProt A7DTF0).
T2 sequence: T1 sequence
The test can be described thus: affinity purification with mass spectrometry; IP-MS in triplicate from lysates of L4-stage wild-type (N2) worms with anti-MRG-1 (Novus), preimmune serum as control; µMACS ProteinA beads; lysis buffer 20 mM HEPES pH 7.4, 150 mM NaCl, 2 mM MgCl2, 0.1% Tween 20; 4°; label-free quantification.

No constants are given. Whether binding was seen depends on the method and setting. In cells and extracts the contact can be indirect. A yes stands for co-enrichment or nearness to the bait. Other partners may have been found. A no says only that the protein was not detected with the bait.

Consider LIN-53 (from UniProt P90916 1-417), for which the binding result in test [1] and in test [2] was “no binding” each time.
For HECD-1 (from UniProt V6CLA2 1-2648), the binding entry in test [1] and in test [2] was “binds” each time.
In the case of “ATHP-1 (C. elegans (endogenous in L4 worms))”, the binding result in test [1] and in test [2] was “binds” throughout.
Take SIN-3 (from UniProt A5JYW9 1-1507): the binding result in test [1] and in test [2] was “binds” in each case.
Turning to “SET-26 (from UniProt Q9U263 1-1645) (enzyme)”, the binding entry in test [1] and in test [2] was “binds” in each case.

B1: MES-4 (enzyme, UniProt Q9NH52 1-898)
chain: MLPSSGDSSKENCAPQDGIVEKEGPNKPFKKKNVKQRNATPQGAGSETSSNAEDKQEEAPILTNAPKDIISMQIQETKAFLSEYEEFVDTDYPKTTFTHVPRKFLSVSPFTPIEADAEGEFLPDADSKCVICHEEKDKTGKSDLITCHGYINGEMDDGKRLLGNIPMFPCRSKFHASCMINYNSGGFHFQYAARLECQARLLCPLHCCNSCNLDHHKQSAYVGDIAECALCLRAFHLTSCYPSGGRDLNVSITIGGKVEKFEMIICPAHYLPGADVQFYNKHKKRKNAVTVVPKADVTMKSHIKACCVIGCEKSSNSKTIMCKTCCRSFHSGCREVETLNGKPIPDDQCESCVCGDPIPQNTLILAKWTDNSFWLALTLDWYKYPTGNRGNINFERLGYTVVQWLIPQENDKEKQPLMSIVPVSDIARLTKNYFSLAKNSTLRNLWEEKYEEQADTALKRCPYVCKTVFGRLRTSVYYKCEPKLEEYHNNEVCNCEGADRCTKLSCQYLADDYECPPSCSKKGVCHNRQVSMGIVSEKIKLAATLCKGYGVFAKGQIEKDEYICEYVGEIIDKAEKKRRLDSVSISRDFQANHYMMELHKGLTVDAARYGNISRYINHSCDPNAASFVTKVFVKKTKEGSLYDTRSYIRAIRTIDDGDEITFSYNMNNEENLPDCECGAENCMGTMGKAKREKPEVADSSEKAAKKNKSSKKKSVKNQNRKSQEAGKNGTASKKSEISPSKPSTSSASSTSFVQQASWPISQNKKNLKKNSNQPVADTGSTLSTSTELNFHEKPQELLSPVSSRSRAASSSTPRAQKSKSRRDDVESEAPPVKRATPSLQTIQETGKAIEFPATKSAITKARALSTQSVPSPHTVEVKVRAISTRGRVQKETKRFEPI
Turning to B1, the binding entry in test [1] and in test [2] was “no binding” in each case.

B2: OGT-1 (enzyme, UniProt O18158 1-1151)
chain: MEKPNYFQSYNKVIGATGEQLAPGAVPPHPVLAPSIAPGGVAGVSAANMANIMQTPGFANLVQQAIRTQLENQAAQQLAVNQQFQLNGATAVQQQLLLTPQQSLAQPIALAPQPTVVLNGVSETLKKVTELAHRQFQSGNYVEAEKYCNLVFQSDPNNLPTLLLLSAINFQTKNLEKSMQYSMLAIKVNNQCAEAYSNLGNYYKEKGQLQDALENYKLAVKLKPEFIDAYINLAAALVSGGDLEQAVTAYFNALQINPDLYCVRSDLGNLLKAMGRLEEAKVCYLKAIETQPQFAVAWSNLGCVFNSQGEIWLAIHHFEKAVTLDPNFLDAYINLGNVLKEARIFDRAVSAYLRALNLSGNHAVVHGNLACVYYEQGLIDLAIDTYKKAIDLQPHFPDAYCNLANALKEKGSVVEAEQMYMKALELCPTHADSQNNLANIKREQGKIEDATRLYLKALEIYPEFAAAHSNLASILQQQGKLNDAILHYKEAIRIAPTFADAYSNMGNTLKEMGDSSAAIACYNRAIQINPAFADAHSNLASIHKDAGNMAEAIQSYSTALKLKPDFPDAYCNLAHCHQIICDWNDYDKRVRKLVQIVEDQLCKKRLPSVHPHHSMLYPLSHAARIAIAAKHASLCFDKVHVQMLGKTPLIHADRFSVQNGQRLRIGYVSSDFGNHPTSHLMQSIPGMHDRSRVEVFCYALSVNDGTNFRSKLMNESEHFVDLSQIPCNGKAAEKIAQDGIHILINMNGYTKGARNEIFALRPAPIQVMWLGYPSTSGATFMDYIITDAVTSPLRLANAFTEKLAYMPHTFFIGDHAQMLRHLTDKVVVKDKETTERDSCLIMNTANMDPILAKSEIKEQVLDTEVVSGPNKELVRAEMVLPVLEVPTEPIKQMIMTGQMTMNVMEDMNVQNGLGQSQMHHKAATGEEIPNSVLLTSRAQYQLPDDAIVFCNFNQLYKIDPSTLDMWIKILENVPKSILWLLRFPYQGEEHIRKYCVERGLDPSRIVFSNVAAKEEHVRRGQLADVCLDTPLCNGHTTGMDILWTGTPMVTMPLESLASRVATSQLYALGVPELVAKTRQEYVSIAVRLGTDADHLANMRAKVWMARTSSTLFDVKQYCHDMEDLLGQMWKRYESGMPIDHITNNTETPHGL
For B2, the binding entry in test [1] and in test [2] was “binds” in each case.

B3: SUMV2 (protein, UniProt Q22992 1-1145)
chain: MKPGRKSLPKKNRASNITEKMPTTSTEAQSSSSKNQDRCRSFSQELGVDDEPEEQQAPVATPKQTKKAQKTAKTTEEVKSPRKSARKSELKKPEPEEKAKEPRKSASKRKSSSLMNKDEPSTSTEAPSADVPGTSEASDEASEIQEAPENPNSALAIKKRLMGGGESSKSAPTKNPPKARKSNVKKPEKEAEALAPPEPPAEPQEAAETPAPEPLVPEKKPKIEDAPTTSSPKKSTPTSAPPTRASARVSKPNRLYADGSFNTEILGRTRITEQNPVKEAQAKESTPELADLPLPAGRRKSTAAPRAPPAPKPIPVINGVLRGYIPSVKVPLAEYEVDGEIINLNEGVNETMDTILAKVCEDGVEKHEDIDPKVVKAKKLAKIDYTKRLKLQVKKLDIQMRIKIPSTPEELGKRKRQAPKTDDFYWSAQSRTKLKGSSKEREETPAFDEESPIGGDEKRQQKARESISHLFDAEMDASIKEAKKYSVSFDKYIKPKITGALKHAKIKLMSRKRQSAEPDDFYYHELLVDQVSPSNSNVENVDVDVDIEETDDKVDPTEFEISEEGVIGIRDEAVDMAEQIALVIPRPTKHDGSPMSMDEIQMRAMEHVESRTKCLDGSLEIVLNQLGHEMAPPTRGVEEQGCQWHTVTSANAQALKNLYTIANNCTEDAITWTHQFMIENLEVHMLASYLSILKYAKRLNSSRFGYVISSTDQLDPEWTQVTSLLKSFVYKRHTEPGTEVLNNTIPYHRMTDTVFLLVPPTLTFGDHQRAPPRHHARIFRWLQSIGHQDSEFISFDEDIDATCSVAEYLSDVIVERICDKVRQKNKYRPNCNVVLVGYGASTYLIHRAANLVEGISAIISIGFPVMTSLGRRGTADDEILLTYCPTLFIVGAEGRRFNNEAITELRTSMISPSGLVVVGHSNDMILVPTSMLLRLGISQTVVFRMVLEKILDFLNLEPVRQQEFADLVPIELNNVFDLDSALLKSDKALSGLAFASSTHSASSSAAPSPVGASGRRATVTGAGSEDIAKRRKESIILSQQIAAPSISGPPPPAPSPRTEDRFLAFQNLVASTITTGDDMPRRASMGASPRVIERGDFRDHRPPPPPPLPILQNPVATPMSQQPPLPSPAPPPPRGPVDPASISLI
Take B3: the binding entry in test [1] and in test [2] was “binds” throughout.

For the origin of these results see article PMC6325694.
